In all, about 33,000 sequences were measured (“E-score (-0.5 to 0.5)”: median about -0.0014, highest 2% from about 0.25 on). The list shows a part of the results.
These sequences were tested against T1, Cad1 (UniProt P24813) (assay: PBM E-score (8-mer binding enrichment) (E-score (-0.5 to 0.5)); higher = stronger / more preferred TF binding). Conditions: protein concentration: 100 nM; construct: GST-full length.
T1 sequence: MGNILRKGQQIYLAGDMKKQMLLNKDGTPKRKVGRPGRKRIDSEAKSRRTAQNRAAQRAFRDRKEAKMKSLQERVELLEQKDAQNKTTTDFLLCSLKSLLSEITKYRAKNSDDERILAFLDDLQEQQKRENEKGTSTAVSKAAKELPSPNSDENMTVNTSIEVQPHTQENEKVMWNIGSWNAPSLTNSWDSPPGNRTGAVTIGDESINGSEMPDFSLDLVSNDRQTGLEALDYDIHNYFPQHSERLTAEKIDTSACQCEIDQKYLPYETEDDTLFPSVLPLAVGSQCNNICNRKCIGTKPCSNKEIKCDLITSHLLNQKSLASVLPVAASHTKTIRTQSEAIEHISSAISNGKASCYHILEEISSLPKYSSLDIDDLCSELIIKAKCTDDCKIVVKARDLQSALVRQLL
Procedure, shortened: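 Yeast transcription factors, full-length or as DNA-binding domains, were expressed with a GST tag using PURExpress in vitro transcription/translation. At about 100-200 nM they were applied to universal all-10-mer Agilent arrays, double-stranded by primer extension on fresh or once-stripped slides. Fluorescent anti-GST detected bound protein, and masliner normalised the scans. E-scores for ungapped eight-base words, pooled with reverse complements, came from the Universal PBM Analysis Suite.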

Row | Sequence | PBM E-score
1 | AATGCACA | 0.0747
2 | TAGTCGCA | -0.105
3 | ACTGTCCC | 0.00841
4 | AAGAGGGC | -0.144
5 | CGAATGCG | 0.246
6 | TAATAAAA | 0.226
7 | GCCAAAAC | 0.0771
8 | CACACCCG | 0.00724
9 | CTCAGCCA | -0.0335
10 | AACGCTAT | 0.0175
11 | ACGATCCT | -0.042
12 | CTGATTTC | 0.182
13 | CAGGGCCA | -0.169
14 | CCTGGAAC | -0.0243
15 | GGGTGCAC | -0.0791
16 | CCAGATCA | 0.0357
17 | GTCTCTCA | 0.0686
18 | ATAATACC | 0.215
19 | CGTCCGCC | -0.138
20 | GATGCGGA | -0.0714
21 | CCTGGCCA | -0.0345
22 | ATCGTCGA | 0.0771
23 | GCTAGAAC | -0.191
24 | AGGTCAAC | 0.00774
25 | GGTAATGA | 0.177

Row | Sequence | PBM E-score
26 | GGGCTGCA | -0.00508
27 | GGCTGTAC | -0.0764
28 | ATCGACCC | 0.0801
29 | AAGGATGG | -0.00477
30 | AAATGTTA | 0.114
31 | CAAATTAG | 0.0433
32 | TACTGTGA | 0.0722
33 | CTCGGGAC | -0.183
34 | ACTGGGCG | -0.153
35 | ACGGTGCA | -0.0033
36 | CAAGTGCC | -0.137
37 | ACGTTGTA | -0.0128
38 | GGGACACC | -0.0353
39 | AGCAATCC | -0.214
40 | ACCGATAG | 0.107
41 | TACAAAGA | 0.173
42 | CCGGACCG | -0.0657
43 | GCTTGAAC | 0.205
44 | CATCAGAG | -0.0712
45 | CCGGCGGA | 0.0466
46 | CCAGGAAC | -0.144
47 | ATGCGGGG | -0.222
48 | CTCATTTA | 0.0251
49 | CAATATTC | 0.0508
50 | AACGGATT | 0.317

Row | Sequence | PBM E-score
51 | AGGTCCAA | -0.189
52 | CAGGATAA | 0.247
53 | AGCCAGAA | -0.0332
54 | CCTCGGAG | -0.00151
55 | TCAAGGCA | -0.116
56 | GCAATGGC | -0.0363
57 | AGACAGTC | -0.119
58 | AACTGAAG | -0.00576
59 | CATAGAAA | 0.207
60 | GTTACGTA | 0.0792
61 | ATGCAGGA | -0.133
62 | GCTAGACC | -0.254
63 | CAGCGACG | -0.0364
64 | AGCGATCC | -0.107
65 | GCTCTGGA | 0.121
66 | AGCTCCCT | -0.271
67 | CAGGCATG | 0.0348
68 | AACGATGT | 0.171
69 | CCACACAG | -0.013
70 | GCCATATA | 0.0708
71 | ATACATAA | 0.12
72 | CGCAAGAC | 0.0828
73 | GCGGGATA | 0.0173
74 | AGGAGACG | -0.19
75 | ACGGAGGG | -0.168

Row | Sequence | PBM E-score
76 | CCTGTACA | 0.0214
77 | AGTTACCA | 0.122
78 | AGCATGGC | 0.0378
79 | CATGTGCA | -0.201
80 | CTTAAGTA | 0.075
81 | CCAATTCA | 0.24
82 | GGTAAATA | 0.107
83 | CGTGTTTC | -0.0153
84 | TCGCCGAA | 0.178
85 | TCCTCCGA | -0.131
86 | ATATCAGA | 0.132
87 | GTAGATAA | 0.251
88 | ATTCTCTA | 0.0352
89 | CCAGATGC | -0.0931
90 | GACGCCCC | -0.242
91 | ACACAAGT | 0.143
92 | TAAGTCCA | 0.0496
93 | CCAAAGAC | -0.059
94 | AAGCGTAG | -0.155
95 | AATGAGAT | 0.0953
96 | ATCGCCAG | 0.0235
97 | ATAACCAG | 0.15
98 | ACTTGGTG | -0.182
99 | ACAGCGTG | 0.112
100 | CCGGTGTC | -0.116

A different layout for some results above.

| Row | Sequence | PBM E-score |
| --- | --- | --- |
| 16 | CCAGATCA | 0.0357 |
| 21 | CCTGGCCA | -0.0345 |
| 40 | ACCGATAG | 0.107 |
| 50 | AACGGATT | 0.317 |
| 51 | AGGTCCAA | -0.189 |
| 92 | TAAGTCCA | 0.0496 |

Following part:

Row | Sequence | PBM E-score
101 | AGAGAACT | -0.0216
102 | CAAGTCGA | 0.0166
103 | AGCCCGAA | -0.0963
104 | CGCACGAA | 0.071
105 | GACTTCAA | -0.182
106 | ACTCGGAT | 0.0302
107 | GGTTTATA | -0.0482
108 | GATCGTCA | 0.0147
109 | AAGAGCAG | -0.174
110 | ACCACTGC | -0.154
111 | CCCCGCGG | -0.0748
112 | AGGACGCA | 0.101
113 | GGTCGCTA | -0.112
114 | AAGCTATG | -0.0137
115 | TCGCTCCA | -0.0792
116 | GCACAACA | -0.00434
117 | CAACCAGG | -0.13
118 | ATCTACGA | -0.142
119 | AAGTTATG | 0.138
120 | GAAGTATC | 0.0455
121 | ACTGGGAA | -0.0452
122 | ACGTGAGT | -0.0277
123 | TACGACCA | -0.0317
124 | AGAGCACA | -0.0271
125 | ACCTATAT | 0.249

Row | Sequence | PBM E-score
126 | CCGGTAGA | -0.053
127 | AATCGCTC | -0.109
128 | GCACGAGA | 0.0423
129 | GCCGGTTA | -0.116
130 | AGCTCCAG | -0.181
131 | CCGCGATA | 0.11
132 | CATTTTAA | 0.0999
133 | CCATCGGC | 0.0261
134 | CTCTTCAC | -0.149
135 | AATAATCA | 0.218
136 | CATCATGG | -0.0638
137 | GCTTTTGA | -0.105
138 | CAATTAGA | 0.011
139 | CACGTGAC | -0.032
140 | GGTAGACA | -0.079
141 | ATCTCTTA | 0.035
142 | CTGCTGCC | -0.125
143 | AAGCAGCT | 0.0761
144 | AGAGTCCC | -0.234
145 | ATGTGCAC | 0.0488
146 | GTGGAGTA | -0.0448
147 | ACGTCTCG | -0.0676
148 | CATTAATA | 0.297
149 | AATAGAGA | -0.0158
150 | GCATAGAA | 0.0802

Three entries from above, in markdown:

| Row | Sequence | PBM E-score |
| --- | --- | --- |
| 145 | ATGTGCAC | 0.0488 |
| 146 | GTGGAGTA | -0.0448 |
| 147 | ACGTCTCG | -0.0676 |

Next results

Row | Sequence | PBM E-score
151 | CATCCCCA | -0.0572
152 | CAAGCGAG | -0.0461
153 | ACGAACGG | 0.136
154 | CCGCGCGC | 0.144
155 | AACCGTGG | -0.234
156 | ACCCAGTA | -0.162
157 | AAACTCGG | 0.0981
158 | ACCTCCTG | -0.159
159 | ACCCTGGG | -0.118
160 | CATCAGCC | 0.00916
161 | GATCAAGA | 0.113
162 | CACCGAGG | -0.0536
163 | AATGAAAC | 0.197
164 | AACGCGGG | 0.0766
165 | CATGATCA | 0.171
166 | CTGCATTA | 0.014
167 | CCAGAGGC | -0.218
168 | TAAGAGTA | 0.108
169 | GGACTGGA | -0.0976
170 | AGGCTATA | -0.0926
171 | ACCTGGGG | -0.274
172 | CCGCTTAA | 0.147

From the supplement of paper PMC3334620
